Data reported in publication PMC9731852.

Chains of the proteins cited; added tags and fusions are not shown. Lines headed by an entry give the natural chain unless they say otherwise; changes in a name come on top.
UniProt O15260: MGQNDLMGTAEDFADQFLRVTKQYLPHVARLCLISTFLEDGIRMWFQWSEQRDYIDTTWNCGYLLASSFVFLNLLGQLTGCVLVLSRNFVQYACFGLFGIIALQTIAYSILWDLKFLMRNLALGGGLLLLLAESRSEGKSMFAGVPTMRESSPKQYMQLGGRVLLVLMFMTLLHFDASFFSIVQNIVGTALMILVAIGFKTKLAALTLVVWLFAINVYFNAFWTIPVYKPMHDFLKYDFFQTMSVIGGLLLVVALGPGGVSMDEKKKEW
UniProt Q7Z5Y6: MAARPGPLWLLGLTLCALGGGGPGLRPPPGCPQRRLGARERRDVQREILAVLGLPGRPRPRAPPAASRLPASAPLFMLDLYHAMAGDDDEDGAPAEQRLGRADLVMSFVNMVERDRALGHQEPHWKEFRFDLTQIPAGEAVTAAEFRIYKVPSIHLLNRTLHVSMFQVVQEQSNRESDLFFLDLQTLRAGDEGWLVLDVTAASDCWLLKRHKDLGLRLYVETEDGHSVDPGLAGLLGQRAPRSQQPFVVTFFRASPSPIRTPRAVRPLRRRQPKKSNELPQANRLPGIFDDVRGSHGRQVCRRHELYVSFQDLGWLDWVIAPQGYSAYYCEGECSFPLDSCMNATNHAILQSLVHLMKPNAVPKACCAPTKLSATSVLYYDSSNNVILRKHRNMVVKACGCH
UniProt Q8N474: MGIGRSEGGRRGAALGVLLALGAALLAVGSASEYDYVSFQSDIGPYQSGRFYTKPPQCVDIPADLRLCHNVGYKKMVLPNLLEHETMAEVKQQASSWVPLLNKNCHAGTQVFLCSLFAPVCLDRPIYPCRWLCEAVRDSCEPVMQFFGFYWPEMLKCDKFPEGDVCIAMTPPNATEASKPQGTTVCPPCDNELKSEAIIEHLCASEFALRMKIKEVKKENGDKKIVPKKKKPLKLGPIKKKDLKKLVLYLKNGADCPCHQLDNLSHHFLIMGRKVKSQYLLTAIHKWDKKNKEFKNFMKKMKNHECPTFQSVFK

Assays:
[1] = target: T1, GST-tagged human SURF4^49–60 with E50, D53 and D56 substituted to alanine (triacidic motif-mutated) (human) (UniProt O15260); assay: pull-down; about 5 μg GST-SURF4^49–60 (WT or MT) on 10 μl GSH beads, incubated with 200 μl of 0.5 mg/ml lysate of transfected HEK293T cells in KOAc buffer (110 mM KOAc, 2 mM Mg(OAc)2, 20 mM Hepes, pH 7.2), 4 °C overnight; washed with 0.5 M KOAc buffer and KOAc buffer; immunoblot with anti-HA; only the target purified
T1 sequence: SAQRAYIATTWN

[2] = target: T2, GST-tagged human SURF4^49–60 (predicted first luminal loop of surfeit locus protein 4) (human) (UniProt O15260); assay: as above
T2 sequence: SEQRDYIDTTWN

| binding [1] | binding [2] | Substance |
| --- | --- | --- |
| binds | binds | C-terminal 3 × HA-tagged BMP8A (bone morphogenetic protein 8A) (from UniProt Q7Z5Y6) |
| – | binds | SFRP1-HA with the (K/R)(K/R)(K/R)XX(K/R)(K/R) motif deleted (from UniProt Q8N474) |
| – | binds | polybasic motif–depleted BMP8A-HA (from UniProt Q7Z5Y6) |

No constants are given. Whether binding was seen depends on the method and setting. Binding seen in cells or lysates may run through a third protein. A result given as binding can be weak or reduced; the word gives no strength. Where a sequence is shown, tags or fusion partners need not be part of it.
